Results: PMC11782663

Sequences of proteins named here, by UniProt entry; tags and fusion partners are left off. A change or cut given only in a name is not applied to a line headed by its entry.
UniProt Q08775: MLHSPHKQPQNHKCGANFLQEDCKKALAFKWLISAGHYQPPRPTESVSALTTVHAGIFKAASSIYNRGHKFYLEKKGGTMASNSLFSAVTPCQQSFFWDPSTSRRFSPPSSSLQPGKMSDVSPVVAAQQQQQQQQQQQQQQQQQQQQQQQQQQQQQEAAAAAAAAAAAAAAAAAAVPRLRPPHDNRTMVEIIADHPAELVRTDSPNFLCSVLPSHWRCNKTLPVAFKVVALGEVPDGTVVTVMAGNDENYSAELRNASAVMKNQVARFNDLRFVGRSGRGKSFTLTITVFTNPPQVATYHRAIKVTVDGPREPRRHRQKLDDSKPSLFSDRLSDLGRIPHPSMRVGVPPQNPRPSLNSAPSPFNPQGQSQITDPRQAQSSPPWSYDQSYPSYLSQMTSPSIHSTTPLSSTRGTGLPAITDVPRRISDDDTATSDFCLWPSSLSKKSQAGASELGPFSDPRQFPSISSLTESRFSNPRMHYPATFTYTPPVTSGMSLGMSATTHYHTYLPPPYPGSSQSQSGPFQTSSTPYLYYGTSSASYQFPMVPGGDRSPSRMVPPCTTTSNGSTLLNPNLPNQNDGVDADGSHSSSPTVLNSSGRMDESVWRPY

Target: Runt-related transcription factor 2 (RUNX2), endogenous (mouse (endogenous in BMSCs)) (UniProt Q08775)
Test: affinity purification with mass spectrometry; binding proteins co-immunoprecipitated with RUNX2 on protein A/G magnetic beads from BMSCs of FXRfl/fl and FXRprx1 littermates after 4 days of osteogenic differentiation; eluates by LC-MS/MS

B1: Thoc6, endogenous (protein, UniProt Q5U4D9 1-341)
chain: MEHAAPLAVPLGQAEVFQALQRLHMTIFSQSVSPCGKFLAAGNNYGQIAIFSLSAALSSEAKEESKKPVVVFHAHDGPVYSMVSTDRHLLSAGDGEVKGWLWAEILKKGCKELWRRQPPYRTSLEVPEINALLLVPKENSLILAGGDCQLHSMDLETGAFTRALRGHTDYIHCLALRERSPEVLSGGEDGAVRLWDLRIAKEVQTIEVYKHEECSRPHNGRWIGCLATDSDWMVCGGGPALTLWHLRSSTPTTVFPIRAPQKHVTFYQDLILSAGQGCCVNHWQLSGELKAQVPGSSPGLLSLSLNQQPAAPECKVLTASGNSCRVDVFTNLGYRAFSLSF
  binding: binds

These are yes or no findings as the source states them, for the method shown. In cells and extracts the contact can be indirect. A yes stands for co-enrichment or nearness to the bait. Other partners may have been found.
